Measurements reported in PubChem BioAssay AID1904 (GNF, 2009)
Screen: 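Gene silencing that lengthens or shortens period, or boosts amplitude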 (follow-up of hits). System: human U2OS osteosarcoma cells stably expressing a destabilised luciferase driven by the Bmal1 promoter. Knock-down reagent: siRNA pair against human genes, 12.5 nM (two siRNAs, 0.5 pmol each, per well). Timing: about 3 days after transfection, then luminescence recorded for about 4 days. Measurement: 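Bmal1 reporter light output measured every 2 hours over several days, detrended, then fitted to give period and amplitude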. Rule for the call: 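Active when retesting with individual siRNAs reproduced the period or amplitude change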. Calls: active = confirmed by single siRNAs; inactive = not confirmed.
This is not the whole library: the list holds selected reagents. 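Lists only primary-screen hits; phenotype classes come from fitted traces, and the underlying luminescence values are not given.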 No sequences are given here.

gene symbol	PubChem SID	clock phenotype class	confirmed with single siRNAs	Call
RCV1	SID85114396	shorter clock period; seen with two independent siRNA pairs for the gene	phenotype reproduced by individual siRNAs	active
RCV1	SID85125220	shorter clock period; seen with two independent siRNA pairs for the gene	phenotype reproduced by individual siRNAs	active
ZBTB20	SID85116334	shorter clock period; seen with one siRNA pair in duplicate wells	phenotype not reproduced by individual siRNAs	inconclusive
ZBTB20	SID85127158	shorter clock period; seen with one siRNA pair in duplicate wells	phenotype not reproduced by individual siRNAs	inconclusive
FLJ20257	SID85103304	longer clock period; seen with two independent siRNA pairs for the gene	phenotype reproduced by individual siRNAs	active
FLJ20257	SID85110527	longer clock period; seen with two independent siRNA pairs for the gene	phenotype reproduced by individual siRNAs	active
FGF19	SID85102051	longer clock period; seen with two independent siRNA pairs for the gene	phenotype reproduced by individual siRNAs	active
FGF19	SID85109274	longer clock period; seen with two independent siRNA pairs for the gene	phenotype reproduced by individual siRNAs	active
ZNF358	SID85120162	shorter clock period; seen with two independent siRNA pairs for the gene	phenotype reproduced by individual siRNAs	active
ZNF358	SID85130986	shorter clock period; seen with two independent siRNA pairs for the gene	phenotype reproduced by individual siRNAs	active
e(y)2	SID85117494	longer clock period; seen with two independent siRNA pairs for the gene	phenotype reproduced by individual siRNAs	active
e(y)2	SID85128318	longer clock period; seen with two independent siRNA pairs for the gene	phenotype reproduced by individual siRNAs	active
LSM7	SID85117033	longer clock period; seen with two independent siRNA pairs for the gene	phenotype reproduced by individual siRNAs	active
LSM7	SID85127857	longer clock period; seen with two independent siRNA pairs for the gene	phenotype reproduced by individual siRNAs	active
ACTL6A	SID85099035	longer clock period; seen with two independent siRNA pairs for the gene	phenotype reproduced by individual siRNAs	active
ACTL6A	SID85106258	longer clock period; seen with two independent siRNA pairs for the gene	phenotype reproduced by individual siRNAs	active
KPNA4	SID85113949	longer clock period; seen with two independent siRNA pairs for the gene	phenotype reproduced by individual siRNAs	active
KPNA4	SID85124773	longer clock period; seen with two independent siRNA pairs for the gene	phenotype reproduced by individual siRNAs	active
ZSWIM3	SID85120170	longer clock period; seen with two independent siRNA pairs for the gene	not retested with individual siRNAs	
ZSWIM3	SID85130994	longer clock period; seen with two independent siRNA pairs for the gene	not retested with individual siRNAs	
GPR45	SID85105024	longer clock period; seen with two independent siRNA pairs for the gene	phenotype reproduced by individual siRNAs	active
GPR45	SID85112247	longer clock period; seen with two independent siRNA pairs for the gene	phenotype reproduced by individual siRNAs	active
DUSP8	SID85105302	higher rhythm amplitude; seen with two independent siRNA pairs for the gene	phenotype reproduced by individual siRNAs	active
DUSP8	SID85112525	higher rhythm amplitude; seen with two independent siRNA pairs for the gene	phenotype reproduced by individual siRNAs	active
SUCNR1	SID85104921	longer clock period; seen with two independent siRNA pairs for the gene	phenotype reproduced by individual siRNAs	active
SUCNR1	SID85112144	longer clock period; seen with two independent siRNA pairs for the gene	phenotype reproduced by individual siRNAs	active
HIF1AN	SID85103311	longer clock period; seen with two independent siRNA pairs for the gene	phenotype reproduced by individual siRNAs	active
HIF1AN	SID85110534	longer clock period; seen with two independent siRNA pairs for the gene	phenotype reproduced by individual siRNAs	active
UNC119	SID85101526	longer clock period; seen with two independent siRNA pairs for the gene	phenotype reproduced by individual siRNAs	active
UNC119	SID85108749	longer clock period; seen with two independent siRNA pairs for the gene	phenotype reproduced by individual siRNAs	active
CSNK2A1	SID85105588	longer clock period; seen with two independent siRNA pairs for the gene	phenotype reproduced by individual siRNAs	active
CSNK2A1	SID85112811	longer clock period; seen with two independent siRNA pairs for the gene	phenotype reproduced by individual siRNAs	active
SLC8A2	SID85114385	higher rhythm amplitude; seen with one siRNA pair in duplicate wells	phenotype reproduced by individual siRNAs	active
SLC8A2	SID85125209	higher rhythm amplitude; seen with one siRNA pair in duplicate wells	phenotype reproduced by individual siRNAs	active

Looked up above:
e(y)2 [SID85128318], Call = active
Under “Call”, RCV1 [SID85125220] shows active
Under “Call”, FLJ20257 [SID85110527] reads active
Under “clock phenotype class”, DUSP8 [SID85105302] is entered as higher rhythm amplitude; seen with two independent siRNA pairs for the gene
Entry of DUSP8 [SID85112525] under “Call”: active
